Key:
[1] = system: RCC samples; test: Label-free relative LC-MS quantitation of HLA-presented peptides (presentation profile/score), RCC vs normal tissues; set-up: species or system human; key: very highly over-presented on tumors compared to a panel of normal tissues (+++); highly over-presented on tumors compared to a panel of normal tissues (++); over-presented on tumors compared to a panel of normal tissues (+); conditions: tumors (RCC) compared to a panel of normal tissues
[2] = system: tumor samples of other tumor types; test: LC-MS detection/over-presentation of peptides on additional tumor types vs normal tissues; set-up: species or system human; conditions: for Other relevant organs/diseases: additional tumor types: over-presented on more than 5% of measured tumor samples, or presented on more than 5% with ratio of geometric means tumor vs normal tissues larger than 3; for cancer tissues with peptide presentation (number of samples) / normal tissues with peptide presentation (number of samples) / peptide was also found on (other cancers, not shown): FIG. 1 legend; for cancer tissues with peptide presentation (number of samples) / normal tissues with peptide presentation (number of samples): samples without peptide presentation are not shown; for Additional Entities: additional tumor types: over-presentation on more than 5% of measured tumor samples, or presentation on more than 5% with ratio of geometric means tumor vs normal larger than 3

133 (QLIDYERQL; listed as Homo sapiens) [compound 133]
Peptide Presentation (presentation score) [1]: ++ | Other relevant organs/diseases [2]: Lung, Colon, Rectum, Liver, Pancreas, Esophagus

SEQ ID NO.: 82 (SLLQATDFMSL; listed as Homo sapiens)
cancer tissues with peptide presentation (number of samples) [2]: 36 | normal tissues with peptide presentation (number of samples) [2]: 4

96 (TLAETLVNL; listed as Homo sapiens) [compound 96]
Peptide Presentation (presentation score) [1]: + | Additional Entities [2]: SCLC, HCC, CLL, Melanoma, Urinary bladder cancer, Uterine Cancer, Gallbladder Cancer, Bile Duct Cancer, AML, NHL | Other relevant organs/diseases [2]: Lung, Stomach, Colon, Rectum, Pancreas, Prostate, Breast, Ovary, Esophagus

SEQ ID NO.: 52 (SILDAVQRV; listed as Homo sapiens)
cancer tissues with peptide presentation (number of samples) [2]: 23

74 (GLFHKQVTV; listed as Homo sapiens) [compound 74]
Peptide Presentation (presentation score) [1]: +

64 (LLAASVALA; listed as Homo sapiens) [compound 64]
Additional Entities [2]: Brain Cancer, AML

113 (SLFDWNVKL; listed as Homo sapiens) [compound 113]
Peptide Presentation (presentation score) [1]: ++ | Additional Entities [2]: SCLC, BRCA, Esophageal Cancer, Gallbladder Cancer, Bile Duct Cancer, AML, NHL | Other relevant organs/diseases [2]: Liver, Prostate

102 (LLFDVHTTL; listed as Homo sapiens) [compound 102]
Peptide Presentation (presentation score) [1]: + | Additional Entities [2]: SCLC, Melanoma, Urinary bladder cancer, Uterine Cancer, AML | Other relevant organs/diseases [2]: Lung, Brain

11 (FIQTEAPKEV; listed as Homo sapiens) [compound 11]
Peptide Presentation (presentation score) [1]: +++

20 (AVANTTFTV; listed as Homo sapiens) [compound 20]
Peptide Presentation (presentation score) [1]: +++ | Additional Entities [2]: Esophageal Cancer, Urinary bladder cancer, Uterine Cancer

79 (ALADIVWRA; listed as Homo sapiens) [compound 79]
Peptide Presentation (presentation score) [1]: + | Other relevant organs/diseases [2]: Lung, Brain, Colon, Rectum, Liver, Pancreas, Prostate, Ovary, Esophagus

SEQ ID NO.: 15 (ILIKHLVKV; listed as Homo sapiens)
cancer tissues with peptide presentation (number of samples) [2]: 17

27 (SLSDLLVSL; listed as Homo sapiens) [compound 27]
Peptide Presentation (presentation score) [1]: ++ | Additional Entities [2]: CRC, Melanoma, Uterine Cancer, AML, NHL | Other relevant organs/diseases [2]: Lung, Liver, Pancreas, Leukocytes

36 (SLFGKKYIL; listed as Homo sapiens) [compound 36]
Peptide Presentation (presentation score) [1]: +++ | Additional Entities [2]: Urinary bladder cancer, Uterine Cancer, Gallbladder Cancer, Bile Duct Cancer | Other relevant organs/diseases [2]: Colon, Rectum

SEQ ID NO.: 39 (YLLNLNHLGL; listed as Homo sapiens)
cancer tissues with peptide presentation (number of samples) [2]: 19 | normal tissues with peptide presentation (number of samples) [2]: 1

32 (FLAGGIRGSGA; listed as Homo sapiens) [compound 32]
Peptide Presentation (presentation score) [1]: +++ | Other relevant organs/diseases [2]: Stomach

31 (VLFGLDPAVIKV; listed as Homo sapiens) [compound 31]
Peptide Presentation (presentation score) [1]: + | Other relevant organs/diseases [2]: Brain, Ovary

97 (TLISELVQA; listed as Homo sapiens) [compound 97]
Peptide Presentation (presentation score) [1]: + | Additional Entities [2]: SCLC, GC, HCC, CLL, Urinary bladder cancer, Uterine Cancer, Gallbladder Cancer, Bile Duct Cancer, NHL | Other relevant organs/diseases [2]: Lung, Colon, Rectum, Pancreas, Prostate, Breast, Melanoma, Ovary, Esophagus

19 (LLDPGSLQL; listed as Homo sapiens) [compound 19]
Peptide Presentation (presentation score) [1]: +

114 (ALAVNISAA; listed as Homo sapiens) [compound 114]
Peptide Presentation (presentation score) [1]: ++ | Additional Entities [2]: GC, CRC, CLL, BRCA, Melanoma, Urinary bladder cancer, Uterine Cancer, Gallbladder Cancer, Bile Duct Cancer, AML, NHL, PC | Other relevant organs/diseases [2]: Lung, Brain, Liver, Pancreas, Esophagus

84 (YLMDEGAHL; listed as Homo sapiens) [compound 84]
Additional Entities [2]: Gallbladder Cancer, Bile Duct Cancer | Other relevant organs/diseases [2]: Liver

SEQ ID NO.: 38 (VLLDTILQL; listed as Homo sapiens)
cancer tissues with peptide presentation (number of samples) [2]: 67 | normal tissues with peptide presentation (number of samples) [2]: 9

46 (GLSEVLVQI; listed as Homo sapiens) [compound 46]
Additional Entities [2]: SCLC, HCC, Melanoma, Urinary bladder cancer, Gallbladder Cancer, Bile Duct Cancer, NHL | Other relevant organs/diseases [2]: Colon, Rectum

35 (VLHSLQTQL; listed as Homo sapiens) [compound 35]
Peptide Presentation (presentation score) [1]: +++

118 (FLNAIETAL; listed as Homo sapiens) [compound 118]
Peptide Presentation (presentation score) [1]: +++

76 (VLADDHLIEV; listed as Homo sapiens) [compound 76]
Additional Entities [2]: HCC, Gallbladder Cancer, Bile Duct Cancer

81 (SLLPALPKL; listed as Homo sapiens) [compound 81]
Additional Entities [2]: BRCA

144 (RLLDVLAPLV; listed as Homo sapiens) [compound 144]
Other relevant organs/diseases [2]: Liver

147 (ALADKELLPSV; listed as Homo sapiens) [compound 147]
Other relevant organs/diseases [2]: Lung, Colon, Rectum, Liver, Pancreas, Melanoma, Ovary

SEQ ID NO.: 33 (FIADVVEKI; listed as Homo sapiens)
cancer tissues with peptide presentation (number of samples) [2]: 16

SEQ ID NO.: 12 (ALDPSGNQLI; listed as Homo sapiens)
peptide was also found on (other cancers, not shown) [2]: ovarian cancer, brain cancer, and lung cancer

151 (YMYEGPAPRI; listed as Homo sapiens) [compound 151]
Peptide Presentation (presentation score) [1]: +++

SEQ ID NO.: 1 (ALIVSLPYL; listed as Homo sapiens)
peptide was also found on (other cancers, not shown) [2]: liver cancer

146 (KLIDLSQVMYL; listed as Homo sapiens) [compound 146]
Other relevant organs/diseases [2]: Lung, Colon, Rectum, Pancreas, Ovary

SEQ ID No.: 25 (LLVPAHLVAA; listed as Homo sapiens)
peptide was also found on (other cancers, not shown) [2]: pancreatic cancer, esophageal cancer, brain cancer, lung cancer and uterine cancer

SEQ ID NO.: 128 (YLEEDVYQL; listed as Homo sapiens)
peptide was also found on (other cancers, not shown) [2]: pancreatic cancer, ovarian cancers, stomach cancer, and lung cancer

SEQ ID NO.: 135: peptide found in SLC16A3 (gene looked up) (VVDEGPTGV; listed as Homo sapiens)
cancer tissues with peptide presentation (number of samples) [2]: 77 | normal tissues with peptide presentation (number of samples) [2]: 5

SEQ ID NO.: 103 (KLQDGLLHI; listed as Homo sapiens)
cancer tissues with peptide presentation (number of samples) [2]: 29

95 (KLTDVGIATL; listed as Homo sapiens) [compound 95]
Additional Entities [2]: Melanoma, NHL

82 (SLLQATDFMSL; listed as Homo sapiens) [compound 82]
Additional Entities [2]: NSCLC, Brain Cancer, BRCA, Melanoma, Uterine Cancer, NHL, PC | Other relevant organs/diseases [2]: Colon, Rectum, Pancreas, Esophagus

60 (ILWKDIEYV; listed as Homo sapiens) [compound 60]
Peptide Presentation (presentation score) [1]: +++

9 (ILLQKPDSV; listed as Homo sapiens) [compound 9]
Peptide Presentation (presentation score) [1]: +++

41 (GLLKTLQKL; listed as Homo sapiens) [compound 41]
Peptide Presentation (presentation score) [1]: +

142 (SVDVSPPKV; listed as Homo sapiens) [compound 142]
Other relevant organs/diseases [2]: Lung, Pancreas, Melanoma, Esophagus

3 (RLLGEVQAL; listed as Homo sapiens) [compound 3]
Peptide Presentation (presentation score) [1]: +++

149 (SILTIEDGIFEV; listed as Homo sapiens) [compound 149]
Other relevant organs/diseases [2]: Lung, Brain, Colon, Rectum, Liver, Pancreas, Prostate, Leukocytes, Breast, Melanoma, Ovary

58 (FLVDFEQSHL; listed as Homo sapiens) [compound 58]
Peptide Presentation (presentation score) [1]: ++

59 (SLKNNVVSV; listed as Homo sapiens) [compound 59]
Additional Entities [2]: Melanoma, Uterine Cancer, Gallbladder Cancer, Bile Duct Cancer | Other relevant organs/diseases [2]: Pancreas, Ovary, Esophagus

SEQ ID NO.: 8 (GLASFKSFL; listed as Homo sapiens)
peptide was also found on (other cancers, not shown) [2]: prostate cancer, breast cancer, colon cancer, liver cancer, melanoma, ovarian cancer, esophageal cancer, pancreatic cancer, brain cancer, stomach cancer and lung cancer

54 (ALVAKGLVQA; listed as Homo sapiens) [compound 54]
Additional Entities [2]: NHL | Other relevant organs/diseases [2]: Melanoma, Ovary

42 (VILDTGTIQL; listed as Homo sapiens) [compound 42]
Peptide Presentation (presentation score) [1]: +++

148 (KLLTEVHAA; listed as Homo sapiens) [compound 148]
Other relevant organs/diseases [2]: Lung, Stomach, Colon, Rectum, Liver, Pancreas, Breast, Ovary, Esophagus

70 (SLTALRLLL; listed as Homo sapiens) [compound 70]
Peptide Presentation (presentation score) [1]: +

SEQ ID NO.: 98 (KIPPVSPSI; listed as Homo sapiens)
cancer tissues with peptide presentation (number of samples) [2]: 47 | normal tissues with peptide presentation (number of samples) [2]: 4

85 (FVMSEIRTV; listed as Homo sapiens) [compound 85]
Additional Entities [2]: Uterine Cancer, Gallbladder Cancer, Bile Duct Cancer | Other relevant organs/diseases [2]: Liver

1 (ALIVSLPYL; listed as Homo sapiens) [compound 1]
Peptide Presentation (presentation score) [1]: +++

— patent US9993536B2, “Peptides and combination of peptides and scaffolds for use in immunotherapy against renal cell carcinoma (RCC) and other cancers” (immatics biotechnologies GmbH, priority 2015, dated 2018)
